From publication PMC12148412
No constants are given. Whether binding was seen depends on the method and setting. In cells and extracts the contact can be indirect. Some binding calls cover weakened binding; strength is not graded here. For some of these results: Tags and fused reporters may be left off the sequences shown.

Amino acid sequences for entries named in this document (tags omitted). A change or cut given only in a name is not applied to a line headed by its entry. Chains listed by the source or under a name are the forms on record and can include a tag or linker. Residues count along the entry.
UniProt Q9ULZ3: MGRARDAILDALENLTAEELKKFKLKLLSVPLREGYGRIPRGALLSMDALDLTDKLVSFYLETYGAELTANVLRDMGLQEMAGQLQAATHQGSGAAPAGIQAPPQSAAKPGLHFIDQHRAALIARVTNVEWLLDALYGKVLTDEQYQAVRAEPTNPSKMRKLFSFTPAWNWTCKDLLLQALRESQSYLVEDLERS
UniProt Q96P20: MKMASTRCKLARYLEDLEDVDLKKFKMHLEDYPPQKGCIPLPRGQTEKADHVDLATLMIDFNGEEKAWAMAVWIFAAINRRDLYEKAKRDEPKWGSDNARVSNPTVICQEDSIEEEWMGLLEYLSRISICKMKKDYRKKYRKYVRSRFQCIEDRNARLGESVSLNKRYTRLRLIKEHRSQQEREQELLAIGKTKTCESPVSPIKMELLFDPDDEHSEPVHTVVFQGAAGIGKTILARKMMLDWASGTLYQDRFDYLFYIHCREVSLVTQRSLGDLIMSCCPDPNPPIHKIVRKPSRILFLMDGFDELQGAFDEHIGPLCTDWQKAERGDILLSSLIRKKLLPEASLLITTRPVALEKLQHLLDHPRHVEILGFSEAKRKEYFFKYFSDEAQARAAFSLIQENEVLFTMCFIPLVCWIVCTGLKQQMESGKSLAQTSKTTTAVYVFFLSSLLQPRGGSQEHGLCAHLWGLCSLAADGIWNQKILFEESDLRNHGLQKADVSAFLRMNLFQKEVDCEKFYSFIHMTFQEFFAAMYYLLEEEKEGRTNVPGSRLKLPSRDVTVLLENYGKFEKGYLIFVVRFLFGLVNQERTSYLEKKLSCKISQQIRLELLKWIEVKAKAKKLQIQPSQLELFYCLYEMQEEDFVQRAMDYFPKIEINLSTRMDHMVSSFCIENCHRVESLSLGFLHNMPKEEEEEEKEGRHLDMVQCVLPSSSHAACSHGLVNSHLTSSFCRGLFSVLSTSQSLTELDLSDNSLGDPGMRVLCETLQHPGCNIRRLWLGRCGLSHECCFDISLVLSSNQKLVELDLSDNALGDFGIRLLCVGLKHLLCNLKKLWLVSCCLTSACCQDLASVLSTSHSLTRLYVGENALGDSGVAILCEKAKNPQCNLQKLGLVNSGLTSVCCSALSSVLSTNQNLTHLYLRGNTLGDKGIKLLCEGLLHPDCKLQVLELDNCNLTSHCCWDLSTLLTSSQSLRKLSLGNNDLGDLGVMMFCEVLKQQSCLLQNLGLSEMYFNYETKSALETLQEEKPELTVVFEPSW
Myc-tagged NLRP3 PYD (amino acids 1-219): residues 1-219 of Q96P20
Myc-tagged NLRP3 NACHT (amino acids 220-741): residues 220-741 of Q96P20
Myc-tagged NLRP3 LRR (amino acids 742-1036): residues 742-1036 of Q96P20
UniProt Q8R4B8: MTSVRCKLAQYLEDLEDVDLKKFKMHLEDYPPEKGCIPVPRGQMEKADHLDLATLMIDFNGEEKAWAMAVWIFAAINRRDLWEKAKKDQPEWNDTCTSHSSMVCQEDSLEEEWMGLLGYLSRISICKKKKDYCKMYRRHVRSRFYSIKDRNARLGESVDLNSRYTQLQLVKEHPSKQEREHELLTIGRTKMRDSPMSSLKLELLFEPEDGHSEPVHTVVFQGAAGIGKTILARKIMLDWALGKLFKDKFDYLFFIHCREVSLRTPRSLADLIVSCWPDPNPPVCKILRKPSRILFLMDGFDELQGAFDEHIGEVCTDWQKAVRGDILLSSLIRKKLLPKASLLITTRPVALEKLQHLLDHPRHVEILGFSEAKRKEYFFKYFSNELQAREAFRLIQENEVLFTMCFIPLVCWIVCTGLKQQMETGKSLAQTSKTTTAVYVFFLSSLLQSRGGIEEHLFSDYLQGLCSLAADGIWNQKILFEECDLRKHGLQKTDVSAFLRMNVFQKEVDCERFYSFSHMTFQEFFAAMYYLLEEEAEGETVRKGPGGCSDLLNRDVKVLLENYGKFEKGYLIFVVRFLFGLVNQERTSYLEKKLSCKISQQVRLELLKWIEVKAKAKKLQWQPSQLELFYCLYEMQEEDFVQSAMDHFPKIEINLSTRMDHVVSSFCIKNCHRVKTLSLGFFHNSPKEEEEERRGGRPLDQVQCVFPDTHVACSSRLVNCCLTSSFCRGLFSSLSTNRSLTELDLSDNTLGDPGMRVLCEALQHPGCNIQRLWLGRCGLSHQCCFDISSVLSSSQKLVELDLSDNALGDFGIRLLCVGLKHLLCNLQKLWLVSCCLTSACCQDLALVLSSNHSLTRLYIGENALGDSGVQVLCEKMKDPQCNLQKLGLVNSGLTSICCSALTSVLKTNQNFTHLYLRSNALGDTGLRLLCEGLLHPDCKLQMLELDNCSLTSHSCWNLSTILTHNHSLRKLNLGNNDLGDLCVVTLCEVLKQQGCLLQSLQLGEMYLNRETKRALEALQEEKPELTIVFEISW

How the values were obtained:
Myc-tagged ASC = Myc-tagged ASC (UniProt Q9ULZ3); test: co-IP; HEK293T cells co-transfected with Flag- and Myc-tagged constructs; NETN lysis buffer, antibody on protein A/G magnetic beads, Western blot
[1] = biological target: Myc-tagged NLRP3 LRR (amino acids 742-1036) (UniProt Q96P20); test: as above
[2] = biological target: Myc-tagged NLRP3 NACHT (amino acids 220-741) (UniProt Q96P20); test: as above
[3] = biological target: Myc-tagged NLRP3 PYD (amino acids 1-219) (UniProt Q96P20); test: as above
[4] = biological target: Myc-tagged full-length NLRP3 (UniProt Q96P20); test: as above
[5] = biological target: NLR family pyrin domain containing 3 (NLRP3), endogenous in mouse BMDMs (mouse (endogenous in BMDM)) (UniProt Q8R4B8); test: co-IP; endogenous proteins in lysates of BMDMs (untreated, LPS, or LPS followed by nigericin); NETN lysis buffer, antibody on protein A/G magnetic beads, Western blot
[6] = biological target: T1, apoptosis-associated speck-like protein containing a CARD (ASC), endogenous in mouse BMDMs (mouse (endogenous in BMDM)) (UniProt Q9EPB4); test: as above
T1 sequence: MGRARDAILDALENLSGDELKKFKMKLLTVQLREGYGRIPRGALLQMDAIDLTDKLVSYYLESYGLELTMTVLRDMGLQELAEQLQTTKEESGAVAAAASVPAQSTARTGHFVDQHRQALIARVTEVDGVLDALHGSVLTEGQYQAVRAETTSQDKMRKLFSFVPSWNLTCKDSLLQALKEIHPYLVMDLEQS

Measured: binding

B1: Flag-tagged FAM120A (protein, UniProt Q9NZB2 1-1118)
chain: MGVQGFQDYIEKHCPSAVVPVELQKLARGSLVGGGRQRPPQTPLRLLVDADNCLHRLYGGFYTDWVSGGQWNHMLGYLAALAKACFGGNIELFVFFNGALEKARLHEWVKRQGNERQTAQQIVSHVQNKGTPPPKVWFLPPVCMAHCIRLALIRFHVKVAQSIEDHHQEVIGFCRENGFHGLVAYDSDYALCNIPYYFSAHALKLSRNGKSLTTSQYLMHEVAKQLDLNPNRFPIFAALLGNHILPDEDLASFHWSLLGPEHPLASLKVRAHQLVLPPCDVVIKAVADYVRNIQDTSDLDAIAKDVFQHSQSRTDDKVIRFKRAIGYYSATSKPMSFHPPHYLAARPGPFGMPGMVPPHVPPQMLNIPQTSLQAKPVAPQVPSPGGAPGQGPYPYSLSEPAPLTLDTSGKNLTEQNSYSNIPHEGKHTPLYERSSPINPAQSGSPNHVDSAYFPGSSTSSSSDNDEGSGGATNHISGNKIGWEKTGSHSEPQARGDPGDQTKAEGSSTASSGSQLAEGKGSQMGTVQPIPCLLSMPTRNHMDITTPPLPPVAPEVLRVAEHRHKKGLMYPYIFHVLTKGEIKIAVSIEDEANKDLPPAALLYRPVRQYVYGVLFSLAESRKKTERLAFRKNRLPPEFSPVIIKEWAAYKGKSPQTPELVEALAFREWTCPNLKRLWLGKAVEDKNRRMRAFLACMRSDTPAMLNPANVPTHLMVLCCVLRYMVQWPGARILRRQELDAFLAQALSPKLYEPDQLQELKIENLDPRGIQLSALFMSGVDMALFANDACGQPIPWEHCCPWMYFDGKLFQSKLLKASREKTPLIDLCDGQADQAAKVEKMRQSVLEGLSFSRQSHTLPFPPPPALPFYPASAYPRHFGPVPPSQGRGRGFAGVCGFGGPYGETVATGPYRAFRVAAASGHCGAFSGSDSSRTSKSQGGVQPIPSQGGKLEIAGTVVGHWAGSRRGRGGRGPFPLQVVSVGGPARGRPRGVISTPVIRTFGRGGRYYGRGYKNQAAIQGRPPYAASAEEVAKELKSKSGESKSSAMSSDGSLAENGVMAEEKPAPQMNGSTGDARAPSHSESALNNDSKTCNTNPHLNALSTDSACRREAALEAAVLNKEE
binds: Myc-tagged ASC | [1] | [2] | [3] | [4]

B2: FAM120A, endogenous in mouse BMDMs (protein, UniProt Q6A0A9 1-1112)
chain: MGVQGFQDYIEKHCPSAVVPVELQKLARGSLVGGGRQRPPQTPLRLLVDADNCLHRLYGGFYTDWVSGGQWNHMLGYLAALAKACFGGNIELFVFFNGALEKARLHEWVKRQGNERQTAQQIVSHVQNKGTPPPKVWFLPPVCMAHCIRLALIRFHVKVAQSIEDHHQEVIGFCRENGFHGLVAYDSDYALCNIPYYFSAHALKLSRNGKSLTTSQYLMHEVAKQLDLNPNRFPIFAALLGNHILPDEDLASFHWSLLGPEHPLASLKVRAHQLVLPPCDVVIKAVADYVRNIHDTSDLDAIAKDVFQHSQSRTDDKVIRFKRAVGYYSATSKPMPFHPPHYLARPNPFGMPGMVPPYVPPQMLNIPQTSLQAKPAVPQVPSPGGTPGQAPYPYSLSEPALTLDTSGKNLTEQNSYSNIPHEGKHTPLYERSSPINLAQSGSPNHVDSAYFPGSSTSSSSDNDEGGGGATNHISGNKIGWEKTGSHAEPLARGDPGDQVKVEGSSTASSGSQLAEGKGSHMGTVQPIPCLLSMPTRNHMDITTPPLPPVAPEVLRVAEHRHKKGLMYPYIFHILTKGEIKIAVSIEDEANKDLPPAALLYRPVRQYVYGVLFSLAESRKKTERLAFRKNRLPPEFSPLIIKEWAAYKGKSPQTPELVEALAFREWTCPNLKRLWLGKAVEDKNRRMRAFLACMRSDTPAMLNPANVPTHLMVLCCVLRYMVQWPGARILRRQELDAFLAQALSPKLYEPDQLQELKIDNLDPRGIQLSALFMSGVDMALFANDACGQPIPWEHCCPWMYFDGKLFQSKLLKASREKTPLIDLCDGQAEQAAKVEKMRQSILEGLSFSRQNHPLPFPPPPALPFYPASVYPRHFGPVPPSQGRGRGFAGVCGFGGHYGETVATGPYRAFRVTAASGHCGAFSGSDSSRTSKSQGGVQPIPSQGGKLEIAGTVVGHWAGSRRGRGGRGPFPLQVVSVGGPARGRPRGVISTPVIRTFGRGGRYYGRGYKSQGAIQGRPPYAASAEEVAKELKSKSGESKSSAVSLAENGVMAEEKPVPQLNGSTGDPRVPSHSESALNNDSKPCNTNPHLNALSTDSACRREAALEAAVLNKEE
binds: [5] | [6]
